Laboratory results: PubChem BioAssay AID1259405 (NCATS, 2018)
Here is one part, drawn at random, of about 50,000 reagents. In the full data, about 4,000 (8%) were called active. 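Mouse siRNA library applied to hamster cells; one well for each siRNA.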 The numbers tell different reagents against one gene apart.

- Screen: 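Silenced genes that increase secreted GFP made by CHO cells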 (primary screen)
- Cells: Chinese hamster CHO-K1 ovary cells with stable secreted eGFP expression
- Knock-down reagent: single siRNA against mouse genes, 0.8 pmol siRNA per well (2 µl of 400 nM stock)
- Timing: 3 days
- Detection: 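Percent of the per-plate non-targeting control median for intracellular GFP per well by laser scanning cytometry and for cell viability by ATP luminescence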
- Direction: GFP, % of control: higher = more GFP per well, higher productivity; viability (ATP), % of control: higher = more viable cells (more ATP)
- Hit rule: 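Called active when intracellular GFP, relative to negative control, is at or above 120%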

gene knocked down	siRNA no.	GFP, % of control	viability (ATP), % of control	call
A230083G16Rik (RIKEN cDNA A230083G16 gene)	1	101	81	inactive
A230083G16Rik (RIKEN cDNA A230083G16 gene)	2	78.3	49.7	inactive
A230083G16Rik (RIKEN cDNA A230083G16 gene)	3	43.5	59.1	inactive
Rbm10 (RNA binding motif protein 10)	1	78.5	83.9	inactive
Rbm10 (RNA binding motif protein 10)	2	65.5	68.8	inactive
Slc35d3	1	62.5	49.7	inactive
Slc35d3	2	104	69.6	inactive
Slc35d3	3	47.7	49.8	inactive
Or5ak4 (olfactory receptor family 5 subfamily AK member 4)	1	83.7	70.8	inactive
Or5ak4 (olfactory receptor family 5 subfamily AK member 4)	2	77.6	83.4	inactive
Or5ak4 (olfactory receptor family 5 subfamily AK member 4)	3	76.9	68	inactive
Hexd (hexosaminidase D)	1	81.5	65.5	inactive
Hexd (hexosaminidase D)	2	75.2	76.8	inactive
Hexd (hexosaminidase D)	3	112	88.2	inactive
Rnf168 (ring finger protein 168)	1	91.4	85	inactive
Rnf168 (ring finger protein 168)	2	78.9	56	inactive
Rnf168 (ring finger protein 168)	3	93.2	82.9	inactive
Crebl2 (cAMP responsive element binding protein-like 2)	1	69.7	70.1	inactive
Crebl2 (cAMP responsive element binding protein-like 2)	2	145	57.6	active
Crebl2 (cAMP responsive element binding protein-like 2)	3	106	82.9	inactive
Tada2a (transcriptional adaptor 2A)	1	102	93.2	inactive
Tada2a (transcriptional adaptor 2A)	2	86.8	89.1	inactive
Cenpl (centromere protein L)	1	83.7	65.9	inactive
Cenpl (centromere protein L)	2	82.1	83.7	inactive
Cenpl (centromere protein L)	3	68.4	65.1	inactive
Mrps25 (mitochondrial ribosomal protein S25)	1	76.7	57.8	inactive
Mrps25 (mitochondrial ribosomal protein S25)	2	55.7	60.5	inactive
Mrps25 (mitochondrial ribosomal protein S25)	3	100	89	inactive
Shtn1 (shootin 1)	1	61.2	71.7	inactive
Shtn1 (shootin 1)	2	36.5	50.9	inactive
Shtn1 (shootin 1)	3	98.1	129	inactive
Frzb (frizzled-related protein)	1	76.2	49.8	inactive
Frzb (frizzled-related protein)	2	70.9	90.8	inactive
Frzb (frizzled-related protein)	3	52.7	43	inactive
Slfn4 (schlafen 4)	1	64.3	63.2	inactive
Slfn4 (schlafen 4)	2	85.1	70.1	inactive
Slfn4 (schlafen 4)	3	50.9	60.7	inactive
Arih2 (ariadne RBR E3 ubiquitin protein ligase 2)	1	82.4	78.4	inactive
Arih2 (ariadne RBR E3 ubiquitin protein ligase 2)	2	113	95.2	inactive
Arih2 (ariadne RBR E3 ubiquitin protein ligase 2)	3	70.7	105	inactive
Rrp15 (ribosomal RNA processing 15 homolog)	1	111	45.9	inactive
Rrp15 (ribosomal RNA processing 15 homolog)	2	59.9	54.2	inactive
Rrp15 (ribosomal RNA processing 15 homolog)	3	79.5	58.1	inactive
1700037C18Rik (RIKEN cDNA 1700037C18 gene)	1	58.7	72.5	inactive
1700037C18Rik (RIKEN cDNA 1700037C18 gene)	2	52.3	77.1	inactive
1700037C18Rik (RIKEN cDNA 1700037C18 gene)	3	103	82.3	inactive
Wdfy3 (WD repeat and FYVE domain containing 3)	1	70.8	76.8	inactive
Wdfy3 (WD repeat and FYVE domain containing 3)	2	185	167	active
Nat8f2 (N-acetyltransferase 8 (GCN5-related) family member 2)	1	45.9	60.1	inactive
Nat8f2 (N-acetyltransferase 8 (GCN5-related) family member 2)	2	62.2	80.8	inactive
Nat8f2 (N-acetyltransferase 8 (GCN5-related) family member 2)	3	81.1	57.9	inactive
Lce3f (late cornified envelope 3F)	1	112	67.1	inactive
Lce3f (late cornified envelope 3F)	2	105	74.3	inactive
Lce3f (late cornified envelope 3F)	3	86.9	88.2	inactive
Sptlc3 (serine palmitoyltransferase, long chain base subunit 3)	1	80.9	88.4	inactive
Sptlc3 (serine palmitoyltransferase, long chain base subunit 3)	2	62.2	97.2	inactive
Sptlc3 (serine palmitoyltransferase, long chain base subunit 3)	3	77.6	72.2	inactive
Or5a1 (olfactory receptor family 5 subfamily A member 1)	1	104	62.4	inactive
Or5a1 (olfactory receptor family 5 subfamily A member 1)	2	113	84.3	inactive
Or5a1 (olfactory receptor family 5 subfamily A member 1)	3	64.3	45.1	inactive
Herc1	1	114	88.2	inactive
Herc1	2	99.5	68.2	inactive
Herc1	3	45.6	91.7	inactive
Or2f1b (olfactory receptor family 2 subfamily F member 1B)	1	92.5	68.1	inactive
Or2f1b (olfactory receptor family 2 subfamily F member 1B)	2	86.8	75.6	inactive
Or2f1b (olfactory receptor family 2 subfamily F member 1B)	3	82	79.1	inactive
Hyal5 (hyaluronoglucosaminidase 5)	1	101	99.8	inactive
Hyal5 (hyaluronoglucosaminidase 5)	2	52.6	65.3	inactive
Hyal5 (hyaluronoglucosaminidase 5)	3	100	126	inactive
Fcho1 (FCH domain only 1)	1	44.4	67	inactive
Fcho1 (FCH domain only 1)	2	76.7	58.4	inactive
Fcho1 (FCH domain only 1)	3	52.3	74.3	inactive
Mybbp1a (MYB binding protein (P160) 1a)	1	45.4	67.9	inactive
Mybbp1a (MYB binding protein (P160) 1a)	2	9.63	10	inactive
Mybbp1a (MYB binding protein (P160) 1a)	3	130	80	active
Cfap206 (cilia and flagella associated protein 206)	1	93.8	61	inactive
Cfap206 (cilia and flagella associated protein 206)	2	96.2	83.5	inactive
Cfap206 (cilia and flagella associated protein 206)	3	75.2	74.4	inactive
Mctp1 (multiple C2 domains, transmembrane 1)	1	63.6	81.7	inactive
Mctp1 (multiple C2 domains, transmembrane 1)	2	79.8	78.6	inactive
Mctp1 (multiple C2 domains, transmembrane 1)	3	84.2	72.2	inactive
Ccz1 (CCZ1 vacuolar protein trafficking and biogenesis associated)	1	43.8	40.5	inactive
Ccz1 (CCZ1 vacuolar protein trafficking and biogenesis associated)	2	92.2	91.9	inactive
Ccz1 (CCZ1 vacuolar protein trafficking and biogenesis associated)	3	95.3	76.7	inactive
D130007C19Rik (RIKEN cDNA D130007C19 gene)	1	105	90.9	inactive
D130007C19Rik (RIKEN cDNA D130007C19 gene)	2	145	56.5	active
D130007C19Rik (RIKEN cDNA D130007C19 gene)	3	87.5	115	inactive
Lsm11 (U7 snRNP-specific Sm-like protein LSM11)	1	65.2	83.9	inactive
Lsm11 (U7 snRNP-specific Sm-like protein LSM11)	2	72.9	87.4	inactive
Lsm11 (U7 snRNP-specific Sm-like protein LSM11)	3	97.4	89.3	inactive
Tfdp1 (transcription factor Dp 1)	1	94.9	91	inactive
Tfdp1 (transcription factor Dp 1)	2	95.3	77.4	inactive
Plekhs1 (pleckstrin homology domain containing S1)	1	102	87.6	inactive
Plekhs1 (pleckstrin homology domain containing S1)	2	68.4	64.5	inactive
Plekhs1 (pleckstrin homology domain containing S1)	3	80.7	95.5	inactive
S100b (S100 protein, beta polypeptide, neural)	1	53.4	75.6	inactive
S100b (S100 protein, beta polypeptide, neural)	2	85.7	83.1	inactive
Fshb (follicle stimulating hormone beta)	1	85.7	85.3	inactive
Fshb (follicle stimulating hormone beta)	2	40.2	58.4	inactive
Fshb (follicle stimulating hormone beta)	3	100	57.4	inactive
Meltf (melanotransferrin)	1	67.6	78.7	inactive
Meltf (melanotransferrin)	2	73.2	76.2	inactive
Meltf (melanotransferrin)	3	72.5	77.1	inactive
4930433I11Rik (RIKEN cDNA 4930433I11 gene)	1	87.1	58.8	inactive
4930433I11Rik (RIKEN cDNA 4930433I11 gene)	2	156	71.5	active
4930433I11Rik (RIKEN cDNA 4930433I11 gene)	3	45.1	55.7	inactive
Itm2a (integral membrane protein 2A)	1	66.8	70.6	inactive
Itm2a (integral membrane protein 2A)	2	62.9	68.8	inactive
Itm2a (integral membrane protein 2A)	3	57.7	28.3	inactive

In a second layout: 12 of the entries above.
gene knocked down | siRNA no. | GFP, % of control | viability (ATP), % of control | call
Shtn1 (shootin 1) | 2 | 36.5 | 50.9 | inactive
Shtn1 (shootin 1) | 3 | 98.1 | 129 | inactive
Frzb (frizzled-related protein) | 1 | 76.2 | 49.8 | inactive
Frzb (frizzled-related protein) | 2 | 70.9 | 90.8 | inactive
Frzb (frizzled-related protein) | 3 | 52.7 | 43 | inactive
Slfn4 (schlafen 4) | 1 | 64.3 | 63.2 | inactive
Slfn4 (schlafen 4) | 2 | 85.1 | 70.1 | inactive
Slfn4 (schlafen 4) | 3 | 50.9 | 60.7 | inactive
Arih2 (ariadne RBR E3 ubiquitin protein ligase 2) | 1 | 82.4 | 78.4 | inactive
Arih2 (ariadne RBR E3 ubiquitin protein ligase 2) | 2 | 113 | 95.2 | inactive
Arih2 (ariadne RBR E3 ubiquitin protein ligase 2) | 3 | 70.7 | 105 | inactive
Rrp15 (ribosomal RNA processing 15 homolog) | 1 | 111 | 45.9 | inactive
